In patent publication US20190083587A1 (Novo Nordisk, published 2019):
Results are given in words; binding and its absence hold for the method and conditions named. Some results given as binding are weak or reduced against the parent protein; the word gives no strength.

Legend:
Experiment in all cases: SPR ProteOn, mAb captured by anti-hFc, 100 nM mutant, signal 10 s after injection, relative to wt
hTLT-1 ECD-HPC4 F54A = molecular target: T1, hTLT-1 ECD-HPC4 F54A (human, UniProt Q86YW5 16-162)
T1 construct: Built as m17; also called Ala mutant 12
T1 chain: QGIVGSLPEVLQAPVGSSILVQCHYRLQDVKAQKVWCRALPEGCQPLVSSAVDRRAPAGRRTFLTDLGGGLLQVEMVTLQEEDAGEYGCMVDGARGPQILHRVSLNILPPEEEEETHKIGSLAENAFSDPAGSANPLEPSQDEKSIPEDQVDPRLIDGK

hTLT-1 ECD-HPC4 M91A = molecular target: T2, hTLT-1 ECD-HPC4 M91A (human, UniProt Q86YW5 16-162)
T2 construct: Built as m17; also called Ala mutant 24
T2 chain: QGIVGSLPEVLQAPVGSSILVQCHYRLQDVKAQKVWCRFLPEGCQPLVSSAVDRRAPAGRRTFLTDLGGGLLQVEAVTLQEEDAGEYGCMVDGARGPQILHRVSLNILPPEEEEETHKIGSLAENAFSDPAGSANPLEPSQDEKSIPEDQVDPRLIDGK

hTLT-1 ECD-HPC4 R117A = molecular target: T3, hTLT-1 ECD-HPC4 R117A (human, UniProt Q86YW5 16-162)
T3 construct: Built as m17; also called Ala mutant 32
T3 chain: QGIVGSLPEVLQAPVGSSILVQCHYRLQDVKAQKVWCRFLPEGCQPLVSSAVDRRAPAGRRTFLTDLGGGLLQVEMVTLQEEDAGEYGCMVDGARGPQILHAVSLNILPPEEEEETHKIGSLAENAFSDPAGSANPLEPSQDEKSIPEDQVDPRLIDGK

hTLT-1 ECD-HPC4 S119A = molecular target: T4, hTLT-1 ECD-HPC4 S119A (human, UniProt Q86YW5 16-162)
T4 construct: Built as m17; also called Ala mutant 33
T4 chain: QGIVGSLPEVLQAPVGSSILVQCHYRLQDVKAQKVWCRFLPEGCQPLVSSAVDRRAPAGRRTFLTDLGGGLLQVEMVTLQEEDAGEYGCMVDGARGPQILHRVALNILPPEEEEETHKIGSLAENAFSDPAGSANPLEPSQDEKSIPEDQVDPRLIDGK

hTLT-1 ECD-HPC4 R41A = molecular target: T5, hTLT-1 ECD-HPC4 R41A (human, UniProt Q86YW5 16-162)
T5 construct: Built as m17; also called Ala mutant 7
T5 chain: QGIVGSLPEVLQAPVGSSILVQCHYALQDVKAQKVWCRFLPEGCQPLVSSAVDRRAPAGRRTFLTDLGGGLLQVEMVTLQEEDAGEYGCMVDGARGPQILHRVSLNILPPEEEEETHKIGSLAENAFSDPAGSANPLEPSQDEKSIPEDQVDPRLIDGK

hTLT-1 ECD-HPC4 L42A = molecular target: T6, hTLT-1 ECD-HPC4 L42A (human, UniProt Q86YW5 16-162)
T6 construct: Built as m17; also called Ala mutant 8
T6 chain: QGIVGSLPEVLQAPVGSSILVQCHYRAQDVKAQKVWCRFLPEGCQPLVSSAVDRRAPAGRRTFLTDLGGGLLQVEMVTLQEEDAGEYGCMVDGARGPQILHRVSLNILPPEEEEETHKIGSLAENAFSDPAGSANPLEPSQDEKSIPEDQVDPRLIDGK

hTLT-1 ECD-HPC4 Q43A = molecular target: T7, hTLT-1 ECD-HPC4 Q43A (human, UniProt Q86YW5 16-162)
T7 construct: Built as m17; also called Ala mutant 9
T7 chain: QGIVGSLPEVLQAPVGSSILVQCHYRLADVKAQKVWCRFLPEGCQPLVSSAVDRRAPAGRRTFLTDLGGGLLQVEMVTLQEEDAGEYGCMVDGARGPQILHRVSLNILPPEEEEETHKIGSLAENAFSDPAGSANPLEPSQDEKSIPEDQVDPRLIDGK

hTLT-1 ECD-HPC4 R110A = molecular target: T8, hTLT-1 ECD-HPC4 R110A (human, UniProt Q86YW5 16-162)
T8 construct: Built as m17; also called Ala mutant 30
T8 chain: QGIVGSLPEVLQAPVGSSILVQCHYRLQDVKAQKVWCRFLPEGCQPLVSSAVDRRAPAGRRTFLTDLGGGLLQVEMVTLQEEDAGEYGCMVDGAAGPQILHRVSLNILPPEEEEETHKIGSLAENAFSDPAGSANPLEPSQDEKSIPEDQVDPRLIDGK

hTLT-1 ECD-HPC4 H116A = molecular target: T9, hTLT-1 ECD-HPC4 H116A (human, UniProt Q86YW5 16-162)
T9 construct: Built as m17; also called Ala mutant 31
T9 chain: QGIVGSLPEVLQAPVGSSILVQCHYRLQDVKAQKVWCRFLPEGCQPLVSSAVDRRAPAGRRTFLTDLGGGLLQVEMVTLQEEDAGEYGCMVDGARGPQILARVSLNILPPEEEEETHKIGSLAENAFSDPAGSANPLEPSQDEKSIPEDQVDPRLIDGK

hTLT-1 ECD-HPC4 K46A = molecular target: T10, hTLT-1 ECD-HPC4 K46A (human, UniProt Q86YW5 16-162)
T10 construct: Built as m17; also called Ala mutant 10
T10 chain: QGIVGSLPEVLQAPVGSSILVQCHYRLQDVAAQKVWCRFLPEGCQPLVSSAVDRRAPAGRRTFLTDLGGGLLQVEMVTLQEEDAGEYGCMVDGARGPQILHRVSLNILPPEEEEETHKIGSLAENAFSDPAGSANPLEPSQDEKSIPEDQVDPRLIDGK

binding (hTLT-1 ECD-HPC4 F54A): binds | binding (hTLT-1 ECD-HPC4 M91A): binds | binding (hTLT-1 ECD-HPC4 R117A): binds | binding (hTLT-1 ECD-HPC4 S119A): binds | binding (hTLT-1 ECD-HPC4 R41A): binds | binding (hTLT-1 ECD-HPC4 L42A): binds | binding (hTLT-1 ECD-HPC4 Q43A): binds | binding (hTLT-1 ECD-HPC4 R110A): binds | binding (hTLT-1 ECD-HPC4 H116A): binds | binding (hTLT-1 ECD-HPC4 K46A): binds
B1: mAb0061 (antibody, human IgG4 S228P, kappa, V domains shown)
VH: EVKLLESGGGLVQPGGSLKLSCAASGFDFSRYWMTWVRQAPGKGLEWIGEINPDSSTINYNPSLKDKFIISRDNAKNTLYLQMSEVRSEDTALYYCASGVFTSWGQGTLVTVSA
VL: DVVMTQTPLSLPVSLGDQASISCRSSQSLVHRNGNTYFHWALQKPGQSPKLLIYKVSNRFSGVPDRFSGSGSGTDFTLKISRVEAEDLGVYFCSQSTHVPYTFGGGTKLEIKR
notes: Mouse VH/VL, human IgG4 / kappa; variant of mAb0012 (HC T60N, LC C36A, Kabat); also called antiTLT-1 0061mab; (0012HC.T60N)2
